Measurements: the supplement of paper PMC3334620
Over roughly 33,000 sequences, “E-score (-0.5 to 0.5)” has its median near -8e-05; the highest 2% begin near 0.23. The list shows a part of the results.

target: T1, Nrg2 (UniProt P38082); assay: PBM E-score (8-mer binding enrichment) (E-score (-0.5 to 0.5)); higher = stronger / more preferred TF binding; details: protein concentration: 100 nM; construct: GST-full length
T1 sequence: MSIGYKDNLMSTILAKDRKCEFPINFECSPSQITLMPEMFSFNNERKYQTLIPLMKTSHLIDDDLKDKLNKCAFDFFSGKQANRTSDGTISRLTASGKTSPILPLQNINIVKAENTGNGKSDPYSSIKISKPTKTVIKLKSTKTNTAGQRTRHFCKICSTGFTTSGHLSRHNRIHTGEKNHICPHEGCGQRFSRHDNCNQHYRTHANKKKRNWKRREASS
How it was run: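 For each ungapped eight-base word taken together with its reverse complement, the Universal PBM Analysis Suite assigned an E-score. Binding data came from GST-tagged yeast transcription factors, applied at about 100-200 nM, on universal all-10-mer Agilent arrays made double-stranded by primer extension. Fluorescent anti-GST marked bound protein, and scans were normalised with masliner.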

Row | Sequence | PBM E-score
1 | ACAGTTCC | 0.0621
2 | CGCGGCCG | -0.0624
3 | GTGCTTCA | 0.161
4 | CTTCTTGC | 0.111
5 | ACGCCCCA | 0.179
6 | ACACTGGC | -0.0834
7 | CGCCAGCC | 0.00719
8 | GGGAAGCA | -0.078
9 | CGGCGGAC | 0.0566
10 | TACAGAGA | -0.0618
11 | CGTTCCAG | -0.0838
12 | ACTTGGGG | 0.105
13 | GCAACTGC | 0.111
14 | CCAGAGAA | 0.00999
15 | AATGCCCA | -0.0232
16 | GCCCATTA | -0.025
17 | ATCTCGGC | 0.0312
18 | ACAATAAG | 0.0954
19 | GACAAACC | -0.0232
20 | CAAAAAAC | 0.079
21 | CCTGTCCG | 0.0584
22 | CGGGAGCC | -0.131
23 | GTGCAAAC | -0.0879
24 | GGAAGGCC | -0.234
25 | CATATGCA | 0.125

Row | Sequence | PBM E-score
26 | CCTGCTTC | -0.167
27 | GTGTAGCA | -0.149
28 | ACCCAAAG | -0.207
29 | CAAGAGTG | -0.163
30 | AGGTGATA | -0.0337
31 | AGCTTAGA | 0.00969
32 | CGTCAACA | -0.0667
33 | AGCTTACT | 0.044
34 | TACGAAGA | -0.00851
35 | ACATATTG | 0.0964
36 | AAGGCAGC | -0.156
37 | CCAGAAAG | 0.0704
38 | CACCCGGG | -0.0923
39 | CAGCAACA | 0.159
40 | CCGGGCAC | -0.16
41 | AGGCACCC | -0.182
42 | ATCAATCG | 0.137
43 | CGATGGTC | 0.0607
44 | CCTTGTAG | -0.223
45 | ATTCGGAG | 0.0374
46 | GGGCCCGA | 0.159
47 | CATAATGA | 0.041
48 | ATTGTGCA | 0.0869
49 | CTCTCAAG | 0.0208
50 | GAAGTCAC | -0.175

Some of the entries above in a different format:
CTCTCAAG
  PBM E-score = 0.0208
GAAGTCAC
  PBM E-score = -0.175

(cont.)

Row | Sequence | PBM E-score
51 | AGCTCTTC | -0.0113
52 | CTCCCCCC | -0.365
53 | TATTTACA | -0.037
54 | ATCGACTG | 0.0939
55 | CTTTTCGC | 0.0709
56 | TCAAAACA | 0.0219
57 | CCTGCCAC | -0.119
58 | TCCGACAA | -0.0198
59 | CGGGTGAG | -0.177
60 | TATAAGAA | 0.12
61 | ATGCTCTA | -0.142
62 | AATTTGTC | -5e-05
63 | CTTATAAG | -0.125
64 | GAATGAAA | 0.103
65 | CGGTGTCA | -0.128
66 | ACTAGATG | 0.0769
67 | AAAGCTCC | -0.11
68 | AACACTCC | 0.0648
69 | CTCCGACC | -0.284
70 | AACGGGTG | 0.156
71 | ACCCGCTG | -0.133
72 | CCCCGGCG | -0.211
73 | AGCTAAGC | -0.0767
74 | CAACTCCG | 0.105
75 | AACGTAGA | 0.00953

Row | Sequence | PBM E-score
76 | CTCTTGCC | -0.164
77 | ATCCGCAA | -0.0409
78 | AAACGGGC | -0.00186
79 | TCACTCAA | -0.0418
80 | AAGTATGC | -0.0791
81 | ATATTTCG | 0.13
82 | GCTTACCC | -0.119
83 | GCTTAATA | 0.0947
84 | ATGCCGTC | -0.0561
85 | ATGGTCTG | 0.033
86 | CATTCGAA | 0.0948
87 | ATTCGTTG | 0.239
88 | GATGTAAC | -0.0657
89 | GATGGGAC | -0.07
90 | AGGAGTAC | -0.221
91 | CACCATTC | -0.0432
92 | ACCAATGA | 0.00102
93 | AATTTTAT | 0.166
94 | ATAGTTGG | 0.0177
95 | AGTCCGAA | 0.0201
96 | AATAAGAG | 0.115
97 | GTGACGAA | 0.0579
98 | ACCGGGAC | -0.0511
99 | CCCAAGGG | -0.0432
100 | ATGTCCAA | -0.00031

Row | Sequence | PBM E-score
101 | TATGCTCA | 0.0339
102 | TGCGTAAA | -0.0469
103 | GCTGTGAA | 0.0603
104 | CCTTGCAA | 0.0406
105 | ACAGGTTA | -0.014
106 | CCCAACCA | 0.0948
107 | ACGGGAGA | -0.0998
108 | ATTCAAAC | 0.0759
109 | AGTAGTCG | 0.047
110 | GTTCACCA | -0.057
111 | AATTCATC | -0.115
112 | AATGAGCA | -0.0915
113 | AGCCCCAG | -0.0267
114 | GAAAACCC | 0.184
115 | CGTTCTTC | 0.0246
116 | GCGAAGAC | -0.16
117 | CGGAAGTA | -0.0225
118 | GATAATAA | 0.19
119 | CGGGCATC | -0.24
120 | GATATTGC | -0.015
121 | CCCCACCG | 0.026
122 | AGGTGCCG | 0.0309
123 | GCCGAAGC | -0.14
124 | ATGCCCAG | -0.0939
125 | CAGTAAGC | -0.017

Row | Sequence | PBM E-score
126 | CGCTAAAC | -0.0747
127 | CCGTAGAG | -0.0733
128 | AAGGCATT | -0.17
129 | CCTTATTA | 0.135
130 | AATTGACT | 0.132
131 | ACCCACTC | 0.0398
132 | CCCCAGAG | -0.197
133 | CAGGACTC | -0.203
134 | AAAGGTGT | -0.0261
135 | CACGTACC | -0.144
136 | ACCAGCCA | -0.0291
137 | ATCGGCCA | -0.037
138 | CGTGTCAC | -0.0649
139 | GACGACGC | 0.0588
140 | ATACGTCA | 0.0277
141 | AGCGGTCG | -0.305
142 | ACCTCCCA | -0.329
143 | ATGTTCTA | 0.00747
144 | AAACTTGC | 0.148
145 | GACTGACC | -0.188
146 | ACCCACAA | 0.213
147 | AGAGCAGC | -0.134
148 | CAACTCGG | 0.0991
149 | TCCATTCA | 0.0643
150 | GGCTGCTA | -0.0689

A few values from the results shown:
AGAGCAGC | PBM E-score: -0.134
ATGTTCTA | PBM E-score: 0.00747
AAGGCATT | PBM E-score: -0.17
GGCTGCTA | PBM E-score: -0.0689

Additional results follow.

Row | Sequence | PBM E-score
151 | CCGCCCTC | -0.112
152 | GCACTAGC | 0.00252
153 | GACCAATA | 0.0307
154 | AGTGCCAT | -0.152
155 | CCGTCGGA | -0.0984
156 | ACCATGCT | -0.0336
157 | CAAGTTTC | -0.00709
158 | CTAGCTGC | -0.135
159 | TACCAGAA | 0.215
160 | AGAAATGA | 0.0395
161 | ATGACCCC | 0.0144
162 | ACCGACTC | 0.00596
163 | CGTTCGAC | -0.0963
164 | GGGCTGAC | -0.0165
165 | AAGTAGAG | -0.143
166 | ACGGGTAC | -0.171
167 | CTATTACC | -0.143
168 | CCAGTGGC | 0.0732
169 | TAAAATGA | 0.254
170 | AAGGTCGG | -0.0301
171 | CCCACTAA | 0.134
172 | ACACATCT | 0.0216

Part of the list above, as tab-separated lines.
Row	Sequence	PBM E-score
53	TATTTACA	-0.037
77	ATCCGCAA	-0.0409
154	AGTGCCAT	-0.152
162	ACCGACTC	0.00596
166	ACGGGTAC	-0.171
171	CCCACTAA	0.134
